The test has as its target Enterococcus faecalis ribose-phosphate pyrophosphokinase (PRPP synthetase), polypeptide having SEQ ID NO: 4, His tagged at the N-terminus, as crystallized (Enterococcus faecalis) (UniProt Q82ZA5). The test is described as follows: X-ray crystal structure, self-association of subunits in the homohexamer.

No constants are given. Whether binding was seen depends on the method and setting. Some binding calls cover weakened binding; strength is not graded here.

For the substance “Enterococcus faecalis ribose-phosphate pyrophosphokinase (PRPP synthetase), polypeptide having SEQ ID NO: 4, His tagged at the N-terminus, as crystallized (from UniProt Q82ZA5 1-323) (enzyme)”, the binding entry is “binds”.

The values are drawn from patent publication US20060078977A1.
